According to publication PMC3410863:
Results are given in words; binding and its absence hold for the method and conditions named. Binding seen in cells or lysates may run through a third protein. Binding calls can cover weak binding; strength is not graded here.

By UniProt entry, the sequences of proteins in these tests, tags left out. Residues count along the entry.
UniProt P41148, residues 22-804: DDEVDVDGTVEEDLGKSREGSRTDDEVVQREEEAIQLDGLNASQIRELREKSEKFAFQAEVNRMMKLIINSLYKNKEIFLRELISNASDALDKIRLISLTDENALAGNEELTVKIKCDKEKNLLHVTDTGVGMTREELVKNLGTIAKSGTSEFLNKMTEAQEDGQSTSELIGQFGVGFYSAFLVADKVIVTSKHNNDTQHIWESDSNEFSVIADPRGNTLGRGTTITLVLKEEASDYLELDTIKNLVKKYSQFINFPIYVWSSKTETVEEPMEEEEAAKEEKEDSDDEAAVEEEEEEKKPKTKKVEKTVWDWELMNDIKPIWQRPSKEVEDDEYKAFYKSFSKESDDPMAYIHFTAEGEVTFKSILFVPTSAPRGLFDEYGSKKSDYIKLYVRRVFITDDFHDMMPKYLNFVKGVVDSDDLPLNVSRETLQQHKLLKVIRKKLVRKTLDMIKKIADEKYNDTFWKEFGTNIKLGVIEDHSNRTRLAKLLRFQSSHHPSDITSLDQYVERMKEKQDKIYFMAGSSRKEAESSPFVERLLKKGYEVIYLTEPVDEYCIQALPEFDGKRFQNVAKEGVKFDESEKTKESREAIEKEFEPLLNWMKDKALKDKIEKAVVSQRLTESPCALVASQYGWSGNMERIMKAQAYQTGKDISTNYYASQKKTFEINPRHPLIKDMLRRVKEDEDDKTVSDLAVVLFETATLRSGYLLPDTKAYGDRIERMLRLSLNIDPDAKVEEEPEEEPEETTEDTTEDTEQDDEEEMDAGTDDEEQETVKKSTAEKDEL

Assays:
Assay in all cases: pull-down; intact bacteria (OD600 of 5, washed in PBS) incubated with 5 µg/ml recombinant Gp96, 2 h, 4°C; washed 4 times with PBS; bound Gp96 detected by immunoblot with anti-Gp96; only the binder purified
[1] = target: Bap homologous protein of S. hyicus 12 (Staphylococcus hyicus) (UniProt Q4ZHU0)
[2] = target: native Bap protein anchored to the cell wall of intact S. aureus V329 (Staphylococcus aureus) (UniProt Q79LN3)
[3] = target: Bap homologous protein of S. chromogenes C483 (Staphylococcus chromogenes) (UniProt Q4ZHU4)
[4] = target: Bap homologous protein of S. epidermidis C533 (Staphylococcus epidermidis) (UniProt Q4ZHU1)
[5] = target: short Bap protein containing a single repetition (ΔrepBap) (Staphylococcus aureus) (UniProt Q79LN3)

Measured: binding

recombinant Gp96 protein (SPP-766 Stressgen) (from UniProt P41148 22-804)
binds: all assays above
